Experimental data: article PMC9056527

Tested on: activated protein C (APC)
Assay: BLI
Conditions: elution buffer 10 mM Tris-HCl, 144 mM NaCl, pH 7.4, 5 mM EDTA, bead capture at RT, 30 min, commercial protein, label: 3'-TEG-biotin, single-stranded DNA

Sequence | binding result (binding buffer, 500 nM APC) | binding result (dissociation in 5 mM EDTA (Table S1: ka 6.4e4 1/Ms, kd 2.3e-2 1/s), kd 9x that in binding buffer) | binding result (dissociation in 1 M NaCl, kd 3.4x that in binding buffer)
AAGCAGTGGTAAGTAGGTTGACACATTAGGGCGGGGTACTCCTATCACGTATGGGGGCCTGTGTCTCTTCGAGCAATCCACAC [NB1-83] | binds | – | –
GACACATTAGGGCGGGGTACTCCTATCACGTATGGGGGCCTGTGTC [NB1-46] | binds | – | –
GATTGTTACTGTCACGAGGATATCACGTATGGGGGGCCGGCATGAGGGCCGCGCGTGACAATAGCACATTAGTTCAGATAC [NB2-81] | binds | – | –
GCCTCCTAACTGAGCTGTACTCGACTTATCCCGGATGGGGCTCTTAGGAGGC [HS02-52G] | – | binds more weakly | binds more weakly
TACTGTCACGAGGATATCACGTATGGGGGGCCGGCATGAGGGCCGCGCGTGACAGTA [NB2-57G] | binds | – | –

For at least one entry, the source does not settle the construct or the ends of the probe. A weaker result is weaker than the reference pair of the same experiment. At least one verdict was read from the data and is not stated in words by the source.
